# This is one part of the list.
# Experiments:
# Experiment in all cases: glycan array binding signal (z-score within array); higher = stronger binding
# Conditions in all cases: glycan notation: IUPAC condensed, linker removed
# [1] = molecular target: Neu5Ac(a2-3)Gal(b1-4)GlcNAc(b1-6)GalNAc
# Method in brief: (§1)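 The binding signal is a Z-score computed within each array and averaged over linkers. Arrays of the same protein sequence at different concentrations or buffers were also averaged together. Data originate from 3228 arrays in the Consortium for Functional Glycomics database, kept only where the protein sequence was available.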
# [2] = molecular target: Neu5Ac(a2-3)Gal(b1-4)GlcNAc(b1-6)[Gal(b1-3)]GalNAc
# Method in brief: as §1
# [3] = molecular target: Neu5Ac(a2-3)Gal(b1-4)GlcNAc(b1-6)[Neu5Ac(a2-3)Gal(b1-3)]GalNAc
# Method in brief: as §1
# [4] = molecular target: Neu5Ac(a2-3)Gal(b1-4)GlcNAc6S
# Method in brief: as §1
# [5] = molecular target: Neu5Ac(a2-3)Gal(b1-4)[Fuc(a1-3)]GlcNAc
# Method in brief: as §1
# [6] = molecular target: Neu5Ac(a2-3)Gal(b1-4)[Fuc(a1-3)]GlcNAc(b1-2)Man
# Method in brief: as §1
# [7] = molecular target: Neu5Ac(a2-3)Gal(b1-4)[Fuc(a1-3)]GlcNAc(b1-3)Gal
# Method in brief: as §1
# [8] = molecular target: Neu5Ac(a2-3)Gal(b1-4)[Fuc(a1-3)]GlcNAc(b1-3)Gal(b1-4)GlcNAc
# Method in brief: as §1
# [9] = molecular target: Neu5Ac(a2-3)Gal(b1-4)[Fuc(a1-3)]GlcNAc(b1-3)Gal(b1-4)[Fuc(a1-3)]GlcNAc(b1-3)Gal(b1-4)[Fuc(a1-3)]GlcNAc
# Method in brief: as §1
# [10] = molecular target: Neu5Ac(a2-3)Gal(b1-4)[Fuc(a1-3)]GlcNAc(b1-3)GalNAc
# Method in brief: as §1
# [11] = molecular target: Neu5Ac(a2-3)Gal(b1-4)[Fuc(a1-3)]GlcNAc(b1-6)[Gal(b1-3)]GalNAc
# Method in brief: as §1
# [12] = molecular target: Neu5Ac(a2-3)Gal(b1-4)[Fuc(a1-3)]GlcNAc(b1-6)[Neu5Ac(a2-3)Gal(b1-3)]GalNAc
# Method in brief: as §1
# [13] = molecular target: Neu5Ac(a2-3)Gal(b1-4)[Fuc(a1-3)]GlcNAc6S
# Method in brief: as §1
# [14] = molecular target: Neu5Ac(a2-3)Gal6S(b1-4)GlcNAc
# Method in brief: as §1
# [15] = molecular target: Neu5Ac(a2-3)Gal6S(b1-4)[Fuc(a1-3)]GlcNAc
# Method in brief: as §1
# Neu5Ac(a2-3)GalNAc = molecular target: Neu5Ac(a2-3)GalNAc
# Method in brief: as §1
# [16] = molecular target: Neu5Ac(a2-3)GalNAc(b1-4)GlcNAc
# Method in brief: as §1
# [17] = molecular target: Neu5Ac(a2-3)[GalNAc(b1-4)]Gal(b1-4)Glc
# Method in brief: as §1
# [18] = molecular target: Neu5Ac(a2-3)[GalNAc(b1-4)]Gal(b1-4)GlcNAc
# Method in brief: as §1
# [19] = molecular target: Neu5Ac(a2-3)[GalNAc(b1-4)]Gal(b1-4)GlcNAc(b1-3)GalNAc
# Method in brief: as §1
# [20] = molecular target: Neu5Ac(a2-3)[Neu5Ac(a2-6)]GalNAc
# Method in brief: as §1
# Neu5Ac(a2-6)Gal = molecular target: Neu5Ac(a2-6)Gal
# Method in brief: as §1
# [21] = molecular target: Neu5Ac(a2-6)Gal(b1-3)GlcNAc(b1-3)[Gal(b1-4)GlcNAc(b1-6)]Gal(b1-4)Glc
# Method in brief: as §1
# Neu5Ac(a2-6)Gal(b1-4)Glc = molecular target: Neu5Ac(a2-6)Gal(b1-4)Glc
# Method in brief: as §1
# [22] = molecular target: Neu5Ac(a2-6)Gal(b1-4)GlcNAc
# Method in brief: as §1
# [23] = molecular target: Neu5Ac(a2-6)Gal(b1-4)GlcNAc(b1-2)Man
# Method in brief: as §1
# [24] = molecular target: Neu5Ac(a2-6)Gal(b1-4)GlcNAc(b1-2)Man(a1-3)Man(b1-4)GlcNAc(b1-4)GlcNAc
# Method in brief: as §1
# [25] = molecular target: Neu5Ac(a2-6)Gal(b1-4)GlcNAc(b1-2)Man(a1-3)[Gal(b1-4)GlcNAc(b1-2)Man(a1-6)]Man(b1-4)GlcNAc(b1-4)GlcNAc
# Method in brief: as §1
# [26] = molecular target: Neu5Ac(a2-6)Gal(b1-4)GlcNAc(b1-2)Man(a1-3)[GlcNAc(b1-2)Man(a1-6)]Man(b1-4)GlcNAc(b1-4)GlcNAc
# Method in brief: as §1
# [27] = molecular target: Neu5Ac(a2-6)Gal(b1-4)GlcNAc(b1-2)Man(a1-3)[GlcNAc(b1-4)][Neu5Ac(a2-6)Gal(b1-4)GlcNAc(b1-2)Man(a1-6)]Man(b1-4)GlcNAc(b1-4)GlcNAc
# Method in brief: as §1
# [28] = molecular target: Neu5Ac(a2-6)Gal(b1-4)GlcNAc(b1-2)Man(a1-3)[Man(a1-6)]Man(b1-4)GlcNAc(b1-4)GlcNAc
# Method in brief: as §1
binder,measurement,setting,value
"AntigenI/IIA3VP1 (Streptococcus mutans), C9E3B4 (protein) AANEADYQAKLTAYQTELARVQKANADAKAAYEAAVAANNAANAALTAENTAIKKRNADAKADYEAKLAKYQADLAKYQKDLADYPVKLKAYEDEQASIKAALAELEKHKNEDGNLTEPSAQNLVYDLEPNANLSLTTDGKFLKASAVDDAFSKSTSKAKYDQKILQLDDLDITNLEQSNDVASSMELYGNFGDKAGWSTTVSNNSQVKWGSVLLERGQSATATYTNLQNSYYNGKKISKIVYKYTVDPKSKFQGQKVWLGIFTDPTLGVFASAYTGQVEKNTSIFIKNEFTFYDEDGKPINFDNALLSVASLNREHNSIEMAKDYSGKFVKISGSSIGEKNGMIYATDTLNFKQGEGGSRWTMYKNSQAGSGWDSSDAPNSWYGAGAIKMSGPNNYVTVGATSATNVMPVSDMPVVPGKDNTDGKKPNIWYSLNGKIRAVNVPKVTKEKPTPPVKPTAPTKPTYETEKPLKPAPVAPNYEKEPTPPTRLEHHHHHH",glycan array binding signal (z-score),[1],-1.01
same,glycan array binding signal (z-score),[2],-0.572
same,glycan array binding signal (z-score),[3],0.145
same,glycan array binding signal (z-score),[4],-0.627
same,glycan array binding signal (z-score),[5],-0.524
same,glycan array binding signal (z-score),[6],2.24
same,glycan array binding signal (z-score),[7],-0.529
same,glycan array binding signal (z-score),[8],-0.001
same,glycan array binding signal (z-score),[9],-0.07
same,glycan array binding signal (z-score),[10],1.57
same,glycan array binding signal (z-score),[11],2.32
same,glycan array binding signal (z-score),[12],0.167
same,glycan array binding signal (z-score),[13],-1.04
same,glycan array binding signal (z-score),[14],-0.68
same,glycan array binding signal (z-score),[15],-0.675
same,glycan array binding signal (z-score),Neu5Ac(a2-3)GalNAc,-1.05
same,glycan array binding signal (z-score),[16],-0.789
same,glycan array binding signal (z-score),[17],-0.636
same,glycan array binding signal (z-score),[18],-0.45
same,glycan array binding signal (z-score),[19],0.844
same,glycan array binding signal (z-score),[20],0.222
same,glycan array binding signal (z-score),Neu5Ac(a2-6)Gal,-1.55
same,glycan array binding signal (z-score),[21],0.439
same,glycan array binding signal (z-score),Neu5Ac(a2-6)Gal(b1-4)Glc,-0.114
same,glycan array binding signal (z-score),[22],-0.452
same,glycan array binding signal (z-score),[23],-0.522
same,glycan array binding signal (z-score),[24],-0.245
same,glycan array binding signal (z-score),[25],0.157
same,glycan array binding signal (z-score),[26],-0.928
same,glycan array binding signal (z-score),[27],-0.618
same,glycan array binding signal (z-score),[28],0.484

# For reference, some entries already given:
binder,measurement,setting,value
"AntigenI/IIA3VP1 (Streptococcus mutans), C9E3B4 (protein) AANEADYQAKLTAYQTELARVQKANADAKAAYEAAVAANNAANAALTAENTAIKKRNADAKADYEAKLAKYQADLAKYQKDLADYPVKLKAYEDEQASIKAALAELEKHKNEDGNLTEPSAQNLVYDLEPNANLSLTTDGKFLKASAVDDAFSKSTSKAKYDQKILQLDDLDITNLEQSNDVASSMELYGNFGDKAGWSTTVSNNSQVKWGSVLLERGQSATATYTNLQNSYYNGKKISKIVYKYTVDPKSKFQGQKVWLGIFTDPTLGVFASAYTGQVEKNTSIFIKNEFTFYDEDGKPINFDNALLSVASLNREHNSIEMAKDYSGKFVKISGSSIGEKNGMIYATDTLNFKQGEGGSRWTMYKNSQAGSGWDSSDAPNSWYGAGAIKMSGPNNYVTVGATSATNVMPVSDMPVVPGKDNTDGKKPNIWYSLNGKIRAVNVPKVTKEKPTPPVKPTAPTKPTYETEKPLKPAPVAPNYEKEPTPPTRLEHHHHHH",glycan array binding signal (z-score),[21],0.439
same,glycan array binding signal (z-score),Neu5Ac(a2-6)Gal(b1-4)Glc,-0.114
